Results are given in words; binding and its absence hold for the method and conditions named. Some results given as binding are weak or reduced against the parent protein; the word gives no strength. Tags and fused reporters may be left off the sequences shown.
Molecular target: mouse CD28 on mouse splenic CD4+ and CD8+ T cells (mouse) (UniProt P31041)
Assay: flow cytometry receptor occupancy on mouse splenocytes

Amino acid sequences for entries named in this document (tags omitted). Residues count along the entry.
UniProt P31041, residues 20-218: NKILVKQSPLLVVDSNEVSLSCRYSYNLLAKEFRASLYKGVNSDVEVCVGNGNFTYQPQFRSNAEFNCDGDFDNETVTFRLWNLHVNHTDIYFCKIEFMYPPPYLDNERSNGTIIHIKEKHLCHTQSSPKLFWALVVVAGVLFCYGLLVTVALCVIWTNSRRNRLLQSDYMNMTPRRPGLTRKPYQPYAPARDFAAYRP

binding: binds
B1: mouse surrogate fusion protein comprising the extracellular domain (ECD) of murine CD80 linked to the Fc domain of mouse IgG2a wild type (mCD80-Fc) (Fc fusion)
chain: VDEQLSKSVKDKVLLPCRYNSPHEDESEDRIYWQKHDKVVLSVIAGKLKVWPEYKNRTLYDNTTYSLIILGLVLSDRGTYSCVVQKKERGTYEVKHLALVKLSIKADFSTPNITESGNPSADTKRITCFASGGFPKPRFSWLENGRELPGINTTISQDPESELYTISSQLDFNTTRNHTIKCLIKYGDAHVSEDFTWEKPPEDPPDSKNEPRGPTIKPCPPCKCPAPNLLGGPSVFIFPPKIKDVLMISLSPIVTCVVVDVSEDDPDVQISWFVNNVEVHTAQTQTHREDYNSTLRVVSALPIQHQDWMSGKEFKCKVNNKDLPAPIERTISKPKGSVRAPQVYVLPPPEEEMTKKQVTLTCMVTDFMPEDIYVEWTNNGKTELNYKNTEPVLDSDGSYFMYSKLRVEKKNWVERNSYSCSVVHEGLHNHHTTKSFSRTPGK
notes: also called Murine CD80 ECD Fusion Molecules; Mouse CD80 ECD mouse Fc IgG2a

— patent US20220031806A1 (Five Prime, published 2022)
